# Key:
# [1] = Optimization study of extraction buffer: NAD+ and NMN quantified by LC-MS/MS in blood or blood cells; design: species or system rat; conditions: for Extraction efficiency, Blood cells, Evaluation / Concentration, Blood cells, Mean / Extraction efficiency, Blood cells, Mean: rat blood cells; for Extraction efficiency, Blood cells, Mean / Extraction efficiency, Blood, Mean: relative to 100:0 as 100%; for Extraction efficiency, Blood, Evaluation / Concentration, Blood, Mean / Extraction efficiency, Blood, Mean: rat whole blood
# [2] = Storage stability of extract solution (frozen storage 71 days); format: physicochemical, human
# Excerpt: A filter paper with added blood derived from a test subject is brought into contact with a solvent (extraction buffer) to obtain the solvent after contact (hereinafter may be abbreviated as extract solution), which storage stability was investigated.
# A part of the blood extract solution (100% water) from the filter paper obtained and stored in Example 2 (15 days of chilled storage) and a part of the solution for LC-MS/MS measurement (water containing 67% acetonitrile) were frozen-stored. After 71 days of frozen storage, the supernatant of the former obtained by adding twice the amount of acetonitrile thereto, mixing and centrifuging (24,250×g, 10 minutes, 4° C.), and the supernatant of the latter obtained by centrifuging (24,250×g, 10 minutes, 4° C.) the solution after storage were both measured by LC-MS/MS under the same conditions as in Example 2.
# [3] = Chilled storage stability of NAD+ and NMN in blood spotted on filter paper (DBS, LC-MS/MS); format: physicochemical, human
# Description: A filter paper, to which blood derived from a test subject is added (i.e., corresponding to a filter paper in Step 1 of the present invention), was searched for the optimal one for quantifying NAD+ and NMN when the filter paper with added blood derived from the test subject is stored in the refrigerator for a certain period of time.
# From 5 subjects (adult men and women) per test, approximately 120 μL of blood (amount of 2 collection containers of the kit) was sampled by self-collection using an Micro Blood Collection Kit (Micro Blood Science Co., Ltd.), and was left to stand on ice until sample processing. The subjects were fasted on the morning of the sampling day, and samplings were performed around 9:00 am. The test was performed four times in total, with a total of 19 people performing evaluations, excluding one person due to insufficient sample blood volume.
# The sampled blood was collected into 1.5 mL microtubes for each subject and mixed by gentle pipetting. Four types of filter papers (Whatman FTA DMPK-A Card/GE healthcare, QIAcard FTA DMPK-B Card/QIAGEN, QIAcard FTA DMPK-C Card/QIAGEN, Whatman 903 Protein saver card/Cytiva) were each spotted with 5 μL of blood (dropped/added) at multiple areas, sealed in a moisture absorption standard pouch (Moisture absorption-kun (registered trademark)/Maruto Sangyo Co., Ltd.), and stored in the refrigerator. Next, after chilled storing the blood-spotted filter paper for 2 days, 2 weeks (14 days or 15 days), or 1 month (30 days), the blood-spotted areas were cut out and collected in a 2 mL microtube. After adding 300 μL of a mixed aqueous solution of internal standard substances (NAD+-d4 and NMN-d4/Toronto Research Chemicals, Inc.) thereto and stirring using a vortex mixer, the mixture was mixed with a micromixer (TOMY MICRO TUBE MIXER MT-400, stirring speed 5) for 30 minutes at room temperature. The blood extract solution was dispensed by each 150 μL portion into a microtube, 300 μL of acetonitrile was added thereto, and the mixture was stirred using a vortex mixer, followed by centrifugation (24,250×g, 10 minutes, 4° C.). After centrifugation, 40 μL of the supernatant was dispensed into a vial and measured by LC-MS/MS.
# In contrast, as a sample for initial values, 5 μL of blood was collected into a 2 mL microtube (no spotted filter paper), and 300 μL of a mixed aqueous solution of internal standard substances (NAD-d4 and NMN-d4/Toronto Research Chemicals, Inc.) was added thereto and stirred using a vortex mixer, and then the mixture was mixed using a micromixer (TOMY MICRO TUBE MIXER MT-400, stirring speed 5) for 30 minutes at room temperature. The blood extract solution was dispensed by each 150 μL portion into a microtube, 300 μL of acetonitrile was added thereto, and the mixture was stirred using a vortex mixer, followed by centrifugation (24,250×g, 10 minutes, 4° C.). After centrifugation, 40 μL of the supernatant was dispensed into a vial and measured by LC-MS/MS.
# [4] = Extraction efficiency of NAD+ and NMN from filter paper (with vs without filter paper); design: species or system human; conditions: for Extraction efficiency (mean): concentration with filter paper / without filter paper
# [5] = extraction buffer water:acetonitrile 0:100
# [6] = extraction buffer water:acetonitrile 20:80
# [7] = extraction buffer water:acetonitrile 40:60
# [8] = extraction buffer water:acetonitrile 60:40 (NAD+ line prints 40:40)
# [9] = extraction buffer water:acetonitrile 80:20
# [10] = extraction buffer water:acetonitrile 100:0
smiles,measurement,setting,value
"NC(=O)c1ccc[n+]([C@@H]2O[C@H](COP(=O)([O-])OP(=O)(O)OC[C@H]3O[C@@H](n4cnc5c(N)ncnc54)[C@H](O)[C@@H]3O)[C@@H](O)[C@H]2O)c1 [NAD+, nicotinamide adenine dinucleotide]","Extraction efficiency, Blood cells, Evaluation",[1]; [5],Poor (Poor (<40%))
same,"Concentration, Blood cells, Mean",[1]; [6],31.53 µmol/L
same,"Extraction efficiency, Blood cells, Evaluation",[1]; [6],Poor (Poor (<40%))
same,"Extraction efficiency, Blood cells, Mean",[1]; [6],9.1%
same,"Concentration, Blood cells, Mean",[1]; [7],203.81 µmol/L
same,"Extraction efficiency, Blood cells, Evaluation",[1]; [7],Average (Average (≥ 40%))
same,"Extraction efficiency, Blood cells, Mean",[1]; [7],55.9%
same,"Concentration, Blood cells, Mean",[1]; [8],212.89 µmol/L
same,"Extraction efficiency, Blood cells, Evaluation",[1]; [8],Average (Average (≥ 40%))
same,"Extraction efficiency, Blood cells, Mean",[1]; [8],58.8%
same,"Concentration, Blood cells, Mean",[1]; [9],232.44 µmol/L
same,"Extraction efficiency, Blood cells, Evaluation",[1]; [9],Good (Good (≥60%))
same,"Extraction efficiency, Blood cells, Mean",[1]; [9],64.3%
same,"Concentration, Blood cells, Mean",[1]; [10],380.82 µmol/L
same,"Extraction efficiency, Blood cells, Evaluation",[1]; [10],Excellent (Excellent (≥80%))
same,"Extraction efficiency, Blood, Evaluation",[1]; [5],Poor (Poor (<40%))
same,"Concentration, Blood, Mean",[1]; [6],18.28 µmol/L
same,"Extraction efficiency, Blood, Evaluation",[1]; [6],Poor (Poor (<40%))
same,"Extraction efficiency, Blood, Mean",[1]; [6],9.4%
same,"Concentration, Blood, Mean",[1]; [7],124.05 µmol/L
same,"Extraction efficiency, Blood, Evaluation",[1]; [7],Good (Good (≥60%))
same,"Extraction efficiency, Blood, Mean",[1]; [7],62.5%
same,"Concentration, Blood, Mean",[1]; [8],141.35 µmol/L
same,"Extraction efficiency, Blood, Evaluation",[1]; [8],Good (Good (≥60%))
same,"Extraction efficiency, Blood, Mean",[1]; [8],71.8%
same,"Concentration, Blood, Mean",[1]; [9],135.60 µmol/L
same,"Extraction efficiency, Blood, Evaluation",[1]; [9],Good (Good (≥60%))
same,"Extraction efficiency, Blood, Mean",[1]; [9],68.0%
same,"Concentration, Blood, Mean",[1]; [10],200.78 µmol/L
same,"Extraction efficiency, Blood, Evaluation",[1]; [10],Excellent (Excellent (≥80%))
same,Concentration (mean),"[2]; 903 card chilled 15 days, extract solution 100% water, frozen 71 days",75.50 µM
same,Concentration (mean),"[2]; 903 card chilled 15 days, extract solution with twice the amount of acetonitrile added, frozen 71 days",26.40 µM
same,Concentration (mean),"[2]; DMPK-A card chilled 15 days, extract solution 100% water, frozen 71 days",41.44 µM
same,Concentration (mean),"[2]; DMPK-A card chilled 15 days, extract solution with twice the amount of acetonitrile added, frozen 71 days",25.37 µM
same,Concentration (mean),"[2]; DMPK-B card chilled 15 days, extract solution 100% water, frozen 71 days",26.37 µM
same,Concentration (mean),"[2]; DMPK-B card chilled 15 days, extract solution with twice the amount of acetonitrile added, frozen 71 days",28.14 µM
same,Concentration (mean),"[2]; DMPK-C card chilled 15 days, extract solution 100% water, frozen 71 days",58.05 µM
same,Concentration (mean),"[2]; DMPK-C card chilled 15 days, extract solution with twice the amount of acetonitrile added, frozen 71 days",21.10 µM
same,Concentration (mean),"[2]; human blood, filter paper: none, storage for 0 days (initial value, Tables 18 and 20)",28.41 µM
same,Concentration (mean),"[3]; human blood on 903 card, chilled storage for 1 month",26.23 µM
same,Concentration (mean),"[3]; human blood on 903 card, chilled storage for 2 weeks",24.33 µM
same,Concentration (mean),"[3]; human blood on 903 card, chilled storage for 2 days",23.95 µM
same,Concentration (mean),"[3]; human blood on DMPK-A card, chilled storage for 1 month",20.69 µM
same,Concentration (mean),"[3]; human blood on DMPK-A card, chilled storage for 2 weeks",24.37 µM
same,Concentration (mean),"[3]; human blood on DMPK-A card, chilled storage for 2 days",24.05 µM
same,Concentration (mean),"[3]; human blood on DMPK-B card, chilled storage for 1 month",24.55 µM
same,Concentration (mean),"[3]; human blood on DMPK-B card, chilled storage for 2 weeks",27.43 µM
same,Concentration (mean),"[3]; human blood on DMPK-B card, chilled storage for 2 days",23.75 µM
same,Concentration (mean),"[3]; human blood on DMPK-C card, chilled storage for 1 month",16.74 µM
same,Concentration (mean),"[3]; human blood on DMPK-C card, chilled storage for 2 weeks",20.88 µM
same,Concentration (mean),"[3]; human blood on DMPK-C card, chilled storage for 2 days",22.02 µM
same,Concentration (mean),"[3]; human blood, filter paper: none, storage for 0 days (initial value, Table 8)",31.89 µM
same,"Extraction efficiency, Evaluation",[4]; 903 card,Average (Average (≥75%))
same,Extraction efficiency (mean),[4]; 903 card,77.2%
same,"Extraction efficiency, Evaluation",[4]; DMPK-A card,Excellent: (Excellent (≥90%))
same,Extraction efficiency (mean),[4]; DMPK-A card,95.1%
same,"Extraction efficiency, Evaluation",[4]; DMPK-B card,Excellent: (Excellent (≥90%))
same,Extraction efficiency (mean),[4]; DMPK-B card,90.9%
same,"Extraction efficiency, Evaluation",[4]; DMPK-C card,Poor (Poor (<75%))
same,Extraction efficiency (mean),[4]; DMPK-C card,72.9%
same,Concentration (mean),"[4]; human blood on 903 card, no storage",24.47 µM
same,Concentration (mean),"[4]; human blood on DMPK-A card, no storage",29.65 µM
same,Concentration (mean),"[4]; human blood on DMPK-B card, no storage",28.75 µM
same,Concentration (mean),"[4]; human blood on DMPK-C card, no storage",22.44 µM
same,Concentration (mean),"[4]; human blood, filter paper: none (Table 16)",31.81 µM
